No constants are given. Whether binding was seen depends on the method and setting. In cells and extracts the contact can be indirect. Here binding means that the protein was enriched with, or labelled near, the bait; the list need not be complete.

By UniProt entry, the sequences of proteins in these tests, tags left out. Where a name states a change or a piece, a line headed by the entry shows the natural chain unless it says otherwise.
UniProt I7MMT8: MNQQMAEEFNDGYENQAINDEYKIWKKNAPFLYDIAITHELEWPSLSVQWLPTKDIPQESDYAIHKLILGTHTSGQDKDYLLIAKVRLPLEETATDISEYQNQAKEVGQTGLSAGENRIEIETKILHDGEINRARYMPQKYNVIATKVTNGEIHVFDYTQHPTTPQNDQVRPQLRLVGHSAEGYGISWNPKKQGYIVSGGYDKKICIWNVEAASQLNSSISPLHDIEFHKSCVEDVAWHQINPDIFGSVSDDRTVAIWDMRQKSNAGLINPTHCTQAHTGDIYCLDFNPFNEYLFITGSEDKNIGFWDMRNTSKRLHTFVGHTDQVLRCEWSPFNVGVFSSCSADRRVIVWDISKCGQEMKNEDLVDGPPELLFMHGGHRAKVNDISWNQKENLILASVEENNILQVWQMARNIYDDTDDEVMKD
UniProt I7MEY9: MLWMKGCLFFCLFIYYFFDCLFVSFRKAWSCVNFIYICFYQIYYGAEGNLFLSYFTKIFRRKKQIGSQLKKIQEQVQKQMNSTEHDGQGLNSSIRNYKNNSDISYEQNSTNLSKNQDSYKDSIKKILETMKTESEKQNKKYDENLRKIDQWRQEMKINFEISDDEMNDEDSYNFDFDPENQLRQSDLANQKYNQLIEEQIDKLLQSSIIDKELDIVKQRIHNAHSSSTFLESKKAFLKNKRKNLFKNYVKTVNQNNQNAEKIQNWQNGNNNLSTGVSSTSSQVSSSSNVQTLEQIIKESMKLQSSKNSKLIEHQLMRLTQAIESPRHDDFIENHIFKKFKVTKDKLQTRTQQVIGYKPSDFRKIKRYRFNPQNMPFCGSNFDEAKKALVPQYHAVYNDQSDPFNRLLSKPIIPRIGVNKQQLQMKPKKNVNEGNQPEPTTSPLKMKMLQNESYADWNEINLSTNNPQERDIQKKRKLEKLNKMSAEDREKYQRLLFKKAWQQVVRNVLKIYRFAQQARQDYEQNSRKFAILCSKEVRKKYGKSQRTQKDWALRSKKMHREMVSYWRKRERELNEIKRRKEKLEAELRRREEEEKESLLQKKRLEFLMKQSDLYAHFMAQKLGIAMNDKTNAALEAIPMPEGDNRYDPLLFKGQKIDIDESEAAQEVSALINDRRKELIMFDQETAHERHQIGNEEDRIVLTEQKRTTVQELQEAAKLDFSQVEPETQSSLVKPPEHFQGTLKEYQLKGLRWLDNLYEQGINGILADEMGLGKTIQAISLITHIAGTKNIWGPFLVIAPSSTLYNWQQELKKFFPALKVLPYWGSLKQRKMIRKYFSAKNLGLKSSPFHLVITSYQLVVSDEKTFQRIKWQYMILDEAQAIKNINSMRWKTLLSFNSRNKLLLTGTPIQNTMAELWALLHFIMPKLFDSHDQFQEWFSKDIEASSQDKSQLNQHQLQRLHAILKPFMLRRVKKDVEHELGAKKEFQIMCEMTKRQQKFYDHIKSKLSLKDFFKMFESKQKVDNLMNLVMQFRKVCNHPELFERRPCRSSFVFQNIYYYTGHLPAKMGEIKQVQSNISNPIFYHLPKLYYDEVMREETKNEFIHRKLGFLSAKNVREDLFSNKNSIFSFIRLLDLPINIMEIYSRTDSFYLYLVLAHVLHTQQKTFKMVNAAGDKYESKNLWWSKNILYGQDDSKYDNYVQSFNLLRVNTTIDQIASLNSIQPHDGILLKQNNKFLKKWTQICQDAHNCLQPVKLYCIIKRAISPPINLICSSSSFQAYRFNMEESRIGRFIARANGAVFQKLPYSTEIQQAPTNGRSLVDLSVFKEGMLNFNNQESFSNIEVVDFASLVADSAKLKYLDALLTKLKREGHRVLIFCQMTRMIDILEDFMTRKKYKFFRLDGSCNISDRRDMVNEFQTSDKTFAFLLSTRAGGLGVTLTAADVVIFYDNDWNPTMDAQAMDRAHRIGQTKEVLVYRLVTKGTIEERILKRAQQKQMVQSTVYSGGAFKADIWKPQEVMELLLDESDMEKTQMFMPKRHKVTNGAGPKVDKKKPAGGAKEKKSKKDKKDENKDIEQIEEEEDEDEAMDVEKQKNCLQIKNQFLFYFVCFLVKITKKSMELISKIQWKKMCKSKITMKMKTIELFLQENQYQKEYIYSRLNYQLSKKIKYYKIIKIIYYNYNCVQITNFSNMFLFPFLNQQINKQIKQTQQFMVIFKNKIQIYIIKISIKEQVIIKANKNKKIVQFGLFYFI
UniProt Q238S4: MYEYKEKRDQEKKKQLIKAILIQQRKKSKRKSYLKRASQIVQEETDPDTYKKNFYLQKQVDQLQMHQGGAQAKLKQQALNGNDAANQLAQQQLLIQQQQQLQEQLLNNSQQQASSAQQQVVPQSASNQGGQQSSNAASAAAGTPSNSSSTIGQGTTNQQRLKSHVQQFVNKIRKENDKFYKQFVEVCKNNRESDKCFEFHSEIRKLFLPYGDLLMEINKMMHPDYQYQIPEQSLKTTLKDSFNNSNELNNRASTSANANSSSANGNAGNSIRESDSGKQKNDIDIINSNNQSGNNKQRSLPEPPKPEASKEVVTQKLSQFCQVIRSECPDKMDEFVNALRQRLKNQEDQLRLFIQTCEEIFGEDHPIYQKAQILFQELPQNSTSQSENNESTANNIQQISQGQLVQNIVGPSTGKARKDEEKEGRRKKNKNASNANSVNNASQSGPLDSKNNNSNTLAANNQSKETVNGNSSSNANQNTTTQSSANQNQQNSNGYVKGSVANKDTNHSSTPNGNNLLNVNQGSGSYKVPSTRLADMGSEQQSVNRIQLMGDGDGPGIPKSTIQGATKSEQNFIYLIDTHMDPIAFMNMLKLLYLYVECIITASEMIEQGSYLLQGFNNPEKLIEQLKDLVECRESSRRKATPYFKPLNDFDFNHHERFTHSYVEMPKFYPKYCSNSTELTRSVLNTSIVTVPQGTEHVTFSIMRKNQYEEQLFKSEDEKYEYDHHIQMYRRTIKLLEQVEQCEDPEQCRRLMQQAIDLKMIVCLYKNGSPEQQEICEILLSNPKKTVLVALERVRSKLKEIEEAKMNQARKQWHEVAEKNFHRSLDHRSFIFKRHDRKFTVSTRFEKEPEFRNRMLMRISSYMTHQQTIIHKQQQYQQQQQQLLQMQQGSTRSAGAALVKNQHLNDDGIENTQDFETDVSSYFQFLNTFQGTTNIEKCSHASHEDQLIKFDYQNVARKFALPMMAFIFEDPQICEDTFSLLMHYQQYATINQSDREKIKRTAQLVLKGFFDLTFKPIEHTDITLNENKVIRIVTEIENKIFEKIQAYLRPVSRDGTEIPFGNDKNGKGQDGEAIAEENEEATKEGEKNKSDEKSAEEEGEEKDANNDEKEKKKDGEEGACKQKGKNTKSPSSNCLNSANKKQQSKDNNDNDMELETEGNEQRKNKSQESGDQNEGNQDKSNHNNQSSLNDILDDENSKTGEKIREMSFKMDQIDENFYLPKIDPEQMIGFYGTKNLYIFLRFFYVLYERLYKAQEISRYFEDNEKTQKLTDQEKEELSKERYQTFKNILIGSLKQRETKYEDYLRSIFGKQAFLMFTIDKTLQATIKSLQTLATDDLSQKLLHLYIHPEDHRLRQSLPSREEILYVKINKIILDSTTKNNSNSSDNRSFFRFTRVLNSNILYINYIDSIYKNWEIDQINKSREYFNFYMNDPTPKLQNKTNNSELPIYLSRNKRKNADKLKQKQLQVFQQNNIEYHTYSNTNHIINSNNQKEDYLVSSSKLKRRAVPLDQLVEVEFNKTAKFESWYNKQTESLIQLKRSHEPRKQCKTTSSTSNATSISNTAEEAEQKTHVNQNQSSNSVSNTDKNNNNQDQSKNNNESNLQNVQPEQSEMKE
UniProt I7LV35: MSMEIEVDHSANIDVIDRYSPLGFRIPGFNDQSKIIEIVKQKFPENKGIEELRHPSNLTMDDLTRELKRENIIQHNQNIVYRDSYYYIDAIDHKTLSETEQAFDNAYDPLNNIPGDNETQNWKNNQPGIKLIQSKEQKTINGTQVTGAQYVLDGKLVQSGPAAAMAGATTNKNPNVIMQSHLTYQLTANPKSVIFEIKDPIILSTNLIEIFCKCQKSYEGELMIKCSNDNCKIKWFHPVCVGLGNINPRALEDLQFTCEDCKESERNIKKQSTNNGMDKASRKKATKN
UniProt Q22DB9: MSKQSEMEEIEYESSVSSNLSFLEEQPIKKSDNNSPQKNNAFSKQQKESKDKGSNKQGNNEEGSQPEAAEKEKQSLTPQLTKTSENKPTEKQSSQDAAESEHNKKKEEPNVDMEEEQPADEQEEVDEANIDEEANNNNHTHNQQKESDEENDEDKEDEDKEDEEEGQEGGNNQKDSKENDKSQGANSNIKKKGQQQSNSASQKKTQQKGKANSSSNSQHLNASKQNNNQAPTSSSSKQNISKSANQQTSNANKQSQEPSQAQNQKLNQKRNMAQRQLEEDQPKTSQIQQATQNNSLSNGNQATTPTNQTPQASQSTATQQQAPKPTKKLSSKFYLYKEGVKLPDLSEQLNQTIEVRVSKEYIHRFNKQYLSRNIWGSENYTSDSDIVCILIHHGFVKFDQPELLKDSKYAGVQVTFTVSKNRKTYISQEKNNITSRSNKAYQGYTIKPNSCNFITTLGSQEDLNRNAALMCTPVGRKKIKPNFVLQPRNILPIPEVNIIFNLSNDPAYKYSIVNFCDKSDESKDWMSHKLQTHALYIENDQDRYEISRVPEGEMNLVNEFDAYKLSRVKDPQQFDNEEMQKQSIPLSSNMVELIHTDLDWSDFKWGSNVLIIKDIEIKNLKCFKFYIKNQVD

The target of test [1] is RebL1-HA (T. thermophila) (UniProt I7MMT8). Put plainly: affinity purification with mass spectrometry; RebL1-HA cells at 8 h of conjugation; lysate on anti-HA agarose overnight at 4 °C, washed seven times with TBST; control: WT cells without HA-tag; hits: RebL1-HA/WT peptide count ratio more than 20.
For test [2] the target is unchanged. Put plainly: affinity purification with mass spectrometry; RebL1-HA cells in vegetative growth; lysate on anti-HA agarose overnight at 4 °C, washed seven times with TBST; control: WT cells without HA-tag; hits: RebL1-HA/WT peptide count ratio more than 40.

Regarding “TTHERM_00343570 (homologous to INO80 ATPase in yeast) (from UniProt I7MEY9)”, the binding result in test [1] is reported as “binds”.

As for “TTHERM_00450950/Sin3 (from UniProt Q238S4)”, the binding entry in test [2] and in test [1] was “binds” throughout.

In the case of “TTHERM_00476650/Pho23 (from UniProt I7LV35)”, in test [2], the binding entry was “binds”.

On to “TTHERM_00992830/Rxt3 (from UniProt Q22DB9)”, for which the binding entry in test [2] was “binds”.
